Reference: the supplement of paper PMC10849652
Some of the results follow.

By UniProt entry, the sequences of proteins in these tests, tags left out. Where a name states a change or a piece, a line headed by the entry shows the natural chain unless it says otherwise.
UniProt P16949: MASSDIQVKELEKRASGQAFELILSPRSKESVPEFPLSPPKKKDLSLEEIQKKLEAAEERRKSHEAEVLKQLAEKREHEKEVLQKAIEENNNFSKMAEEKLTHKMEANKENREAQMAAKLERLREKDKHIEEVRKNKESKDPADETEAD
UniProt O60499: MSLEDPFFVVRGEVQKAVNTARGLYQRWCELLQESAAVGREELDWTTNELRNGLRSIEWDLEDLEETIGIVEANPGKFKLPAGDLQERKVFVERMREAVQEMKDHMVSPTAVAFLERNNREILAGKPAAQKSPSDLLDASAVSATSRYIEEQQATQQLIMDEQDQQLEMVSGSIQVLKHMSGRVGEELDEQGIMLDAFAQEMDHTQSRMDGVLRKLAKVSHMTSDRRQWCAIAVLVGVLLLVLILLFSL
UniProt P61764, whole entry, looked up: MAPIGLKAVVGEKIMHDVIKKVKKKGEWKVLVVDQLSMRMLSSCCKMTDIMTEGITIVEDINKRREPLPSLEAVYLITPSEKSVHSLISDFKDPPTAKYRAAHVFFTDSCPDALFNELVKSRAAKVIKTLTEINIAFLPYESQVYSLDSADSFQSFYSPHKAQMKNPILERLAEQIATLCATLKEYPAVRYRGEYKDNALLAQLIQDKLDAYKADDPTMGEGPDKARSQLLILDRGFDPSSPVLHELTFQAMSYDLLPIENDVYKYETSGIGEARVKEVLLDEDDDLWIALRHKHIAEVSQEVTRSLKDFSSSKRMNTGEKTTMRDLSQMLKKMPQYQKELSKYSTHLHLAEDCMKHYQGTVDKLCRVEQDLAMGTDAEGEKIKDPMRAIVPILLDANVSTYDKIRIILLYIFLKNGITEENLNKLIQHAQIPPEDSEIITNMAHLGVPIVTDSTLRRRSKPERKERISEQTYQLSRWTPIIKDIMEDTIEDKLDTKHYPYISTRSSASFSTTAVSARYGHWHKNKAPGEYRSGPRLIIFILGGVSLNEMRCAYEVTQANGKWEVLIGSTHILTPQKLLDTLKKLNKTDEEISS
UniProt P55854, whole entry, looked up: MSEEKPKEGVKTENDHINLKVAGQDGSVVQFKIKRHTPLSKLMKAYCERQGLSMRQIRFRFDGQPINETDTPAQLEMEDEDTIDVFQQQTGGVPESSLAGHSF
UniProt Q16563: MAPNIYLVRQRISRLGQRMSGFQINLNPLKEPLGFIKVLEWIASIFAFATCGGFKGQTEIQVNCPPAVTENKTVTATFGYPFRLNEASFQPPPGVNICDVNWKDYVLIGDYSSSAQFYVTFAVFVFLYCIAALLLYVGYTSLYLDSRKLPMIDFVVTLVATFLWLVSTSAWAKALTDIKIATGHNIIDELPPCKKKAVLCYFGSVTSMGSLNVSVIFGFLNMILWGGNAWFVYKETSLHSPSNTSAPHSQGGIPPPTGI
UniProt O75683: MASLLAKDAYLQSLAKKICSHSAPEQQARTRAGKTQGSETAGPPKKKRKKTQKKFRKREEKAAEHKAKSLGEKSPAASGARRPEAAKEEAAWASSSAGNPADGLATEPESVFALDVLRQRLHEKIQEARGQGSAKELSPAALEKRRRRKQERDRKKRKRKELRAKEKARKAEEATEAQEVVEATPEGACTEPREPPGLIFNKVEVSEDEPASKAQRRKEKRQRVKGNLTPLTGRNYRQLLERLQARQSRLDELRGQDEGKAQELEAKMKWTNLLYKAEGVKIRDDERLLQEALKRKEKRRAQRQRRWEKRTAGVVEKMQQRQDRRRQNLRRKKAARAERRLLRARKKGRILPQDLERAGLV
UniProt O15260: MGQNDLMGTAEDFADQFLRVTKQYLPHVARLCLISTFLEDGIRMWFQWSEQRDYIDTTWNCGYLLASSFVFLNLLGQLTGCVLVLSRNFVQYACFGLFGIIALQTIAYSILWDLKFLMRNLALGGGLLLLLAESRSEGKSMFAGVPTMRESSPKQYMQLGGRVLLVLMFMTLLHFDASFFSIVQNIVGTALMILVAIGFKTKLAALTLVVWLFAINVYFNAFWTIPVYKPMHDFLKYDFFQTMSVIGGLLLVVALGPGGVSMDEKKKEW
UniProt Q96BW9: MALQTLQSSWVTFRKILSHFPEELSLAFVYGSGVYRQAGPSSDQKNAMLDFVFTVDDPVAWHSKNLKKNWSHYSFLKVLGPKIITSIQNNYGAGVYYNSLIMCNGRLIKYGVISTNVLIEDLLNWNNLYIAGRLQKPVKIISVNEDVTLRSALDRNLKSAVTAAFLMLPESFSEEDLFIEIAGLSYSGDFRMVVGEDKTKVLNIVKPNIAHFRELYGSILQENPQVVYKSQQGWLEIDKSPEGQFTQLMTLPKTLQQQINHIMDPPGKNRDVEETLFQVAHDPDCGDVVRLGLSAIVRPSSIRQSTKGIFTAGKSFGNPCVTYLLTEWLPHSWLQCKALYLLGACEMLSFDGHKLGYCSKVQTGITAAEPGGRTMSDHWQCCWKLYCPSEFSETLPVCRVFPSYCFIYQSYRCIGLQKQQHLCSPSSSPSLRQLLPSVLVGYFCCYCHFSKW
UniProt Q7L7X3: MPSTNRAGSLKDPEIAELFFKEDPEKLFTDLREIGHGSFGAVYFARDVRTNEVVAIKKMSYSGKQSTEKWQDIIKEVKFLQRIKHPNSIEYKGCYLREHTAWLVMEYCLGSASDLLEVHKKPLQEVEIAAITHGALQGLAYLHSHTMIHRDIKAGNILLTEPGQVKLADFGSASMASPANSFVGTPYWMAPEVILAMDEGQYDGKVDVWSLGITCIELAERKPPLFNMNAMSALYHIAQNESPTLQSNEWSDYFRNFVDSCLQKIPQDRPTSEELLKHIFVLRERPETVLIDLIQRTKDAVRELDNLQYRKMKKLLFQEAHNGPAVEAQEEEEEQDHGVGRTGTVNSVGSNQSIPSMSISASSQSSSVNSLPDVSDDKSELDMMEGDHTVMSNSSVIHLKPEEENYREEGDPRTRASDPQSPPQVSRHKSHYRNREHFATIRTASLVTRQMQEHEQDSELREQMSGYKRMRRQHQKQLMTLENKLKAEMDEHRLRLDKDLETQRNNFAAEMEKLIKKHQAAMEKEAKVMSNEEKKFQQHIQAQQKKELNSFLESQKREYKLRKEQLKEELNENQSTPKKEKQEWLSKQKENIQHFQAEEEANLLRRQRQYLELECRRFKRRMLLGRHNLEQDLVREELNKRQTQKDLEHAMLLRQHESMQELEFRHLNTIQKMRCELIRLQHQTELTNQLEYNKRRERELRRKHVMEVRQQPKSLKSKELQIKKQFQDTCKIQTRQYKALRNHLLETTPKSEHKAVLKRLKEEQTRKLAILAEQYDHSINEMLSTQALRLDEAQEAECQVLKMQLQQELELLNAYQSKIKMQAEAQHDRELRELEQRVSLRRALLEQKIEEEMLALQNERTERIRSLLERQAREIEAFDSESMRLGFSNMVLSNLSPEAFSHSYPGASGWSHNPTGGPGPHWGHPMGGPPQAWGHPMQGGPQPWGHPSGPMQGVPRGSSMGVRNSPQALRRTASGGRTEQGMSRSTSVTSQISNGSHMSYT
UniProt Q9BW92: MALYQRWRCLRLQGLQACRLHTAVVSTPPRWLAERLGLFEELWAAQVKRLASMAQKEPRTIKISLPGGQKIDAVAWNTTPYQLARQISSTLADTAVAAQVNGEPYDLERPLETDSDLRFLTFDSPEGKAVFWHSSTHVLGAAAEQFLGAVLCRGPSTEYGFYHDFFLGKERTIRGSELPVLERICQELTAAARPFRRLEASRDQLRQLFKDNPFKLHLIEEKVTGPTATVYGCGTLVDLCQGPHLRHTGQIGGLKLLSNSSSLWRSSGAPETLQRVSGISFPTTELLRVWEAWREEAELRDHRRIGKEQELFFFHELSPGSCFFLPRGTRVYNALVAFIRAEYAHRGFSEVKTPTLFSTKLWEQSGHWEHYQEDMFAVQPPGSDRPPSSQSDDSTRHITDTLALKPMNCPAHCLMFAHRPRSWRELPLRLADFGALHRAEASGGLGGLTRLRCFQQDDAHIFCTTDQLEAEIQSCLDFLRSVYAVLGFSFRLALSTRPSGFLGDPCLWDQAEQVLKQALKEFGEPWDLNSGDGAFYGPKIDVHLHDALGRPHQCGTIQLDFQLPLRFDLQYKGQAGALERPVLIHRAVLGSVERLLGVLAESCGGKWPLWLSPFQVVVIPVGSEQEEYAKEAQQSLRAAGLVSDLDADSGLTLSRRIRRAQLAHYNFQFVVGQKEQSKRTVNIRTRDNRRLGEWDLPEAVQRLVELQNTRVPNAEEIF
UniProt Q5T5C0: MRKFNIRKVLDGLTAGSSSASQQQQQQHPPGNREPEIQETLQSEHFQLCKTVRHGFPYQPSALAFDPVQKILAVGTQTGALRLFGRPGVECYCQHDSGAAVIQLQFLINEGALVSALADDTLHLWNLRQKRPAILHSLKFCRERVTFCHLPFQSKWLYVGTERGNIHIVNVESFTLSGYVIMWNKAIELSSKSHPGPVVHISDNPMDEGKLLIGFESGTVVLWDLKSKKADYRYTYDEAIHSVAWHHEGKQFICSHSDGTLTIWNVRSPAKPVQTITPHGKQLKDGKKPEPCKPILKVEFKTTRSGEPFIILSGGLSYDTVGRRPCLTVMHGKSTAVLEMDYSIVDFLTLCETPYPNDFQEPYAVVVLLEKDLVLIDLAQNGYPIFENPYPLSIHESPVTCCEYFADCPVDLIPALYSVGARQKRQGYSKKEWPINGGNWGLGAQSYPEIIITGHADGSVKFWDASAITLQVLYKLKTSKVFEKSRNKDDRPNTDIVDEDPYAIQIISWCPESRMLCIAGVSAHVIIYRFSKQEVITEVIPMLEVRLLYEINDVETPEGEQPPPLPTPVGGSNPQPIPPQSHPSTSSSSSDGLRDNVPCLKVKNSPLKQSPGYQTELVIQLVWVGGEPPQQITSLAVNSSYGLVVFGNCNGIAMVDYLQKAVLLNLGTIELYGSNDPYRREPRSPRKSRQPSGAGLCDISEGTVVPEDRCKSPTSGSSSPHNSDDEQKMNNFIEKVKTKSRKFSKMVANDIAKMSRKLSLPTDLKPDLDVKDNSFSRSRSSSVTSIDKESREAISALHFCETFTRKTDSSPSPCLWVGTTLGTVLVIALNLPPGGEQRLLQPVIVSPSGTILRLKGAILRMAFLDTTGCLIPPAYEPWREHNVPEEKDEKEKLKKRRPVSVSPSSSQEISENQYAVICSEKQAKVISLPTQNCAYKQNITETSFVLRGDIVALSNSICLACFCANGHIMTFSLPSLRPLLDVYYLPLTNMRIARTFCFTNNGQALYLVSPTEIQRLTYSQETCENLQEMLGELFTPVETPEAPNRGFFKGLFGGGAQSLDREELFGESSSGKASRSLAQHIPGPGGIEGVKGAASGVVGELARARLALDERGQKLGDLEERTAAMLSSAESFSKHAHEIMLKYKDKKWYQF
UniProt O75410: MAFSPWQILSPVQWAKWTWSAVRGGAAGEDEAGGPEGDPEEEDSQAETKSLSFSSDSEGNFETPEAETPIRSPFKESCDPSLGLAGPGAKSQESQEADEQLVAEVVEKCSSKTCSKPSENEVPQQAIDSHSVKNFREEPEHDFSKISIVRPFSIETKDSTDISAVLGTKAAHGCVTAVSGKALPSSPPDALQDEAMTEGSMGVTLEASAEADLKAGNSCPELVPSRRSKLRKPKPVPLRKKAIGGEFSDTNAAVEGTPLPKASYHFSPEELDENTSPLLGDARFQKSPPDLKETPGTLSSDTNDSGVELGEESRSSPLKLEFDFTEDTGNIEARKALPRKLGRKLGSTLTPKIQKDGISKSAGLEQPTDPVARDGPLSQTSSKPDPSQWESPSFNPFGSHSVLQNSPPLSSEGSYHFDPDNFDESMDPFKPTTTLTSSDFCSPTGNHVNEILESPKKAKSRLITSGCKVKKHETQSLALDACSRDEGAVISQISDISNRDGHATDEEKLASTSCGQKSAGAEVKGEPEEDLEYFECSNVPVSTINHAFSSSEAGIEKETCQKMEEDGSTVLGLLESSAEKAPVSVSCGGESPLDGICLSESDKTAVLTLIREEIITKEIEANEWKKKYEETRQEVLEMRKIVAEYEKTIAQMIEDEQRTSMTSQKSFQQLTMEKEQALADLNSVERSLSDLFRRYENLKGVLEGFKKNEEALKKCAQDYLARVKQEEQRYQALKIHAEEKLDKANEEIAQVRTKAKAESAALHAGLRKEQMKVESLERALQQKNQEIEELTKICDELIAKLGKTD
UniProt O43752: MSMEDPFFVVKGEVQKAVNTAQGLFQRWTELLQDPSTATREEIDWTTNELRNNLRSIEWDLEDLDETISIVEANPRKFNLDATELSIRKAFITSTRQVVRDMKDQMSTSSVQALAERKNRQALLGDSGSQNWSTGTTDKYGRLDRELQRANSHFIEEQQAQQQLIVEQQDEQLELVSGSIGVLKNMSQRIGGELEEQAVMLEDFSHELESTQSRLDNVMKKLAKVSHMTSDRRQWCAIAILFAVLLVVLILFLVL

Assays:
Assay in all cases: log2 fold change, soluble protein after heating vs DMSO (PISA); higher = thermal stabilisation; K562 cells, 10 uM, 30 min; active = over 0.2 and 3.5 SD of the protein, either way, in both replicates (recomputed)
[1] = compound: COC1=CC=C(C=C1)CN2C=CC3=C2C=C(C=C3)C(=O)NO
How it was run: (§1)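 Thermal stability values are relative to control samples and come from duplicates. They are expressed as log2 fold changes. For measurement, K562 cells (2×10^6 cells/mL) received 10 μM compound for 30 min, and aliquots were heated for 3 min over 48°C-58°C, pooled, and extracted at 4°C in PBS with 0.5% NP-40. Soluble protein, the supernatant after 21,000xg for 90 min, was quantified by TMTpro 16plex LC-MS/MS with equalised channel sums.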

filanesib = compound: CON(C)C(=O)N1N=C(c2cc(F)ccc2F)S[C@@]1(CCCN)c1ccccc1 [filanesib]
How it was run: as §1

zotarolimus = compound: CO[C@H]1C[C@@H]2CC[C@@H](C)[C@@](O)(O2)C(=O)C(=O)N2CCCC[C@H]2C(=O)O[C@H]([C@H](C)C[C@@H]2CC[C@H](n3cnnn3)[C@H](OC)C2)CC(=O)[C@H](C)/C=C(\C)[C@@H](O)[C@@H](OC)C(=O)[C@H](C)C[C@H](C)/C=C/C=C/C=C/1C [zotarolimus]
How it was run: as §1

idasanutlin = compound: COc1cc(C(=O)O)ccc1NC(=O)[C@@H]1N[C@@H](CC(C)(C)C)[C@](C#N)(c2ccc(Cl)cc2F)[C@H]1c1cccc(Cl)c1F [idasanutlin]
How it was run: as §1

alisertib = compound: COc1cc(Nc2ncc3c(n2)-c2ccc(Cl)cc2C(c2c(F)cccc2OC)=NC3)ccc1C(=O)O [alisertib]
How it was run: as §1

[2] = compound: COc1cc2nc(-c3cc(F)ccc3O)nc(N[C@@H]3CNC[C@H]3C(C)(C)O)c2cc1OC
How it was run: as §1

gefitinib = compound: COc1cc2ncnc(Nc3ccc(F)c(Cl)c3)c2cc1OCCCN1CCOCC1 [gefitinib]
How it was run: as §1

[3] = compound: COc1cccc2cc(-c3nc([C@H]4CC[C@H](C(=O)O)CC4)n4ncnc(N)c34)[nH]c12
How it was run: as §1

lapatinib = compound: CS(=O)(=O)CCNCc1ccc(-c2ccc3ncnc(Nc4ccc(OCc5cccc(F)c5)c(Cl)c4)c3c2)o1 [lapatinib]
How it was run: as §1

pictilisib = compound: CS(=O)(=O)N1CCN(Cc2cc3nc(-c4cccc5[nH]ncc45)nc(N4CCOCC4)c3s2)CC1 [pictilisib]
How it was run: as §1

[4] = compound: CS(=O)(=O)c1ccc(-c2cnc(N)c(C(=O)Nc3ccccc3)n2)cc1
How it was run: as §1

crizotinib = compound: C[C@@H](Oc1cc(-c2cnn(C3CCNCC3)c2)cnc1N)c1c(Cl)ccc(F)c1Cl [crizotinib]
How it was run: as §1

[5] = compound: C[C@@H]1COCCN1C2=NC(=NC(=C2)C3(CC3)S(=O)(=O)C)C4=C5C=CNC5=CC=C4
How it was run: as §1

[6] = compound: C[C@H](C1=CC=C(C=C1)C(=O)NC2=C3C=CNC3=NC=C2)N
How it was run: as §1

duvelisib = compound: C[C@H](Nc1ncnc2nc[nH]c12)c1cc2cccc(Cl)c2c(=O)n1-c1ccccc1 [duvelisib]
How it was run: as §1

gandotinib = compound: Cc1cc(Nc2cc(CN3CCOCC3)c3nc(C)c(Cc4ccc(Cl)cc4F)n3n2)n[nH]1 [gandotinib]
How it was run: as §1

tozasertib = compound: Cc1cc(Nc2cc(N3CCN(C)CC3)nc(Sc3ccc(NC(=O)C4CC4)cc3)n2)n[nH]1 [tozasertib]
How it was run: as §1

[7] = compound: Cc1cc(SCc2sc(-c3ccc(C(F)(F)F)cc3)nc2C)ccc1OCC(=O)O
How it was run: as §1

doramapimod = compound: Cc1ccc(-n2nc(C(C)(C)C)cc2NC(=O)Nc2ccc(OCCN3CCOCC3)c3ccccc23)cc1 [doramapimod]
How it was run: as §1

ispinesib = compound: Cc1ccc(C(=O)N(CCCN)[C@@H](c2nc3cc(Cl)ccc3c(=O)n2Cc2ccccc2)C(C)C)cc1 [ispinesib]
How it was run: as §1

Measured: log2 fold change

STMN1 (UniProt P16949)
inactive: [1] -0.003 | filanesib -0.038 | zotarolimus 0.001 | idasanutlin 0.037 | alisertib -0.057 | [2] -0.006 | gefitinib 0.008 | [3] 0.033 | lapatinib -0.071 | pictilisib -0.032 | [4] -0.02 | crizotinib 0.029 | [5] -0.05 | [6] -0.03 | duvelisib 0.014 | gandotinib -0.006 | tozasertib -0.03 | [7] -0.047 | doramapimod -0.01 | ispinesib 0.004

STX10 (UniProt O60499)
inactive: [1] 0.193 | filanesib 0.013 | zotarolimus 0.011 | idasanutlin -0.112 | alisertib -0.157 | [2] 0.01 | gefitinib 0.008 | [3] 0.091 | lapatinib -0.058 | pictilisib 0.024 | [4] -0.031 | crizotinib 0.082 | [5] 0.029 | [6] -0.016 | duvelisib 0.072 | gandotinib 0.022 | tozasertib 0.014 | [7] 0.033 | doramapimod -0.032 | ispinesib 0.029

STXBP1 (UniProt P61764)
inactive: [1] 0.235 | filanesib -0.08 | zotarolimus 0.094 | idasanutlin 0.103 | alisertib -0.021 | [2] 0.037 | gefitinib 0.02 | [3] -0.003 | lapatinib 0.138 | pictilisib 0.017 | [4] 0.055 | crizotinib -0.329 | [5] 0.072 | [6] 0 | duvelisib 0.214 | gandotinib -0.174 | tozasertib 0.063 | [7] 0.318 | doramapimod 0.003 | ispinesib -0.121

STX18 (UniProt Q9P2W9)
inactive: [1] 0.007 | filanesib 0.003 | zotarolimus -0.015 | idasanutlin -0.033 | alisertib -0.05 | [2] 0.049 | gefitinib -0.005 | [3] -0.003 | lapatinib -0.029 | pictilisib 0.099 | [4] 0.012 | crizotinib -0.041 | [5] 0.029 | [6] 0.054 | duvelisib 0.032 | gandotinib -0.055 | tozasertib -0.014 | [7] 0.109 | doramapimod 0.048 | ispinesib -0.095

SUMO3 isoform 2 (UniProt P55854)
inactive: [1] -0.11 | filanesib 0.054 | zotarolimus -0.057 | idasanutlin 0.069 | alisertib -0.065 | [2] -0.097 | gefitinib -0.033 | [3] 0.086 | lapatinib -0.019 | pictilisib -0.088 | [4] -0.1 | crizotinib -0.037 | [5] -0.106 | [6] 0.025 | duvelisib -0.096 | gandotinib 0.081 | tozasertib -0.081 | [7] -0.176 | doramapimod 0.036 | ispinesib -0.162

STRN3 (UniProt Q13033)
inactive: [1] 0.038 | filanesib 0.031 | zotarolimus -0.005 | idasanutlin 0.042 | alisertib -0.04 | [2] -0.006 | gefitinib -0.041 | [3] -0.011 | lapatinib 0.034 | pictilisib -0.025 | [4] 0.047 | crizotinib 0.015 | [5] 0.119 | [6] 0.001 | duvelisib -0.013 | gandotinib 0.043 | tozasertib 0.003 | [7] 0.022 | doramapimod -0.046 | ispinesib 0.018

SYPL1 (UniProt Q16563)
inactive: [1] -0.065 | filanesib -0.083 | zotarolimus -0.034 | idasanutlin 0.003 | alisertib -0.064 | [2] -0.008 | gefitinib 0.02 | [3] 0.096 | lapatinib -0.041 | pictilisib -0.024 | [4] 0.064 | crizotinib 0.072 | [5] 0.054 | [6] -0.056 | duvelisib 0.073 | gandotinib 0.266 | tozasertib -0.034 | [7] -0.026 | doramapimod -0.002 | ispinesib 0.026

SURF6 (UniProt O75683)
inactive: [1] 0.026 | filanesib 0.335 | zotarolimus 0.065 | idasanutlin 0.159 | alisertib -0.116 | [2] -0.008 | gefitinib 0.018 | [3] -0.093 | lapatinib 0.379 | pictilisib -0.014 | [4] 0.058 | crizotinib 0.026 | [5] -0.358 | [6] 0.355 | duvelisib -0.133 | gandotinib 0.258 | tozasertib 0.082 | [7] -0.043 | doramapimod 0.119 | ispinesib 0.134

SURF4 (UniProt O15260)
inactive: [1] -0.056 | filanesib -0.036 | zotarolimus -0.005 | idasanutlin -0.016 | alisertib -0.139 | [2] -0.074 | gefitinib 0.018 | [3] 0.066 | lapatinib -0.069 | pictilisib -0.004 | [4] -0.005 | crizotinib 0.055 | [5] -0.028 | [6] -0.06 | duvelisib 0.072 | gandotinib 0.012 | tozasertib -0.01 | [7] -0.038 | doramapimod 0.048 | ispinesib -0.023

TAMM41 isoform 3 (UniProt Q96BW9)
active: crizotinib -0.232 | ispinesib -0.249
inactive: [1] -0.027 | filanesib -0.09 | zotarolimus -0.009 | idasanutlin -0.122 | alisertib 0.019 | [2] -0.169 | gefitinib -0.025 | [3] 0.112 | lapatinib 0.021 | pictilisib 0.027 | [4] 0.064 | [5] 0.073 | [6] -0.016 | gandotinib -0.04 | [7] 0.05 | doramapimod -0.048

TAOK1 (UniProt Q7L7X3)
inactive: [1] -0.046 | filanesib 0.054 | zotarolimus -0.032 | idasanutlin 0.031 | alisertib 0.043 | [2] -0.088 | gefitinib 0.033 | [3] 0.011 | lapatinib 0.014 | pictilisib -0.043 | [4] -0.002 | crizotinib -0.035 | [5] 0.011 | [6] -0.08 | gandotinib -0.029 | [7] 0.023 | doramapimod 0.021 | ispinesib -0.001

TARS2 (UniProt Q9BW92)
active: [1] -0.487
inactive: filanesib -0.02 | zotarolimus -0.006 | idasanutlin -0.084 | alisertib -0.021 | [2] 0.044 | gefitinib -0.023 | [3] 0.041 | lapatinib -0.022 | pictilisib 0.004 | [4] 0.022 | crizotinib 0.024 | [5] 0.094 | [6] -0.002 | gandotinib -0.173 | [7] 0.009 | doramapimod 0.015 | ispinesib -0.094

STXBP5 (UniProt Q5T5C0)
inactive: [1] -0.012 | filanesib -0.039 | zotarolimus 0 | idasanutlin -0.022 | alisertib -0.084 | [2] 0.015 | gefitinib -0.006 | [3] 0.003 | lapatinib 0.023 | pictilisib -0.038 | [4] -0.021 | crizotinib -0.024 | [5] 0.006 | [6] 0.047 | gandotinib -0.029 | [7] -0.002 | doramapimod 0.026 | ispinesib -0.058

TACC1 isoform 2 (UniProt O75410)
inactive: [1] -0.013 | filanesib -0.039 | zotarolimus -0.025 | idasanutlin -0.003 | alisertib -0.036 | [2] -0.031 | gefitinib -0.01 | [3] 0.009 | lapatinib -0.019 | pictilisib 0.03 | [4] 0.037 | crizotinib 0.047 | [5] 0.059 | [6] 0.005 | duvelisib 0.067 | gandotinib -0.006 | tozasertib 0.011 | [7] -0.016 | doramapimod 0.002 | ispinesib -0.03

2 consecutive entries from above, quoted:
TARS2 (UniProt Q9BW92)
active: [1] -0.487
inactive: filanesib -0.02 | zotarolimus -0.006 | idasanutlin -0.084 | alisertib -0.021 | [2] 0.044 | gefitinib -0.023 | [3] 0.041 | lapatinib -0.022 | pictilisib 0.004 | [4] 0.022 | crizotinib 0.024 | [5] 0.094 | [6] -0.002 | gandotinib -0.173 | [7] 0.009 | doramapimod 0.015 | ispinesib -0.094

STXBP5 (UniProt Q5T5C0)
inactive: [1] -0.012 | filanesib -0.039 | zotarolimus 0 | idasanutlin -0.022 | alisertib -0.084 | [2] 0.015 | gefitinib -0.006 | [3] 0.003 | lapatinib 0.023 | pictilisib -0.038 | [4] -0.021 | crizotinib -0.024 | [5] 0.006 | [6] 0.047 | gandotinib -0.029 | [7] -0.002 | doramapimod 0.026 | ispinesib -0.058

The results go on:

TACO1 (UniProt Q9BSH4)
inactive: [1] 0.095 | filanesib -0.137 | zotarolimus 0.016 | idasanutlin 0.066 | alisertib -0.057 | [2] 0.135 | gefitinib 0.012 | [3] -0.169 | lapatinib -0.112 | pictilisib 0.063 | [4] 0.064 | crizotinib 0 | [5] 0.095 | [6] -0.033 | duvelisib 0.159 | gandotinib 0.058 | tozasertib 0.031 | [7] 0.14 | doramapimod 0 | ispinesib 0.157

STX6 (UniProt O43752)
inactive: [1] 0.08 | filanesib 0.056 | zotarolimus 0.026 | idasanutlin -0.133 | alisertib -0.122 | [2] 0.064 | gefitinib -0.019 | [3] 0.009 | lapatinib -0.01 | pictilisib 0.008 | [4] 0.038 | crizotinib 0.024 | [5] -0.002 | [6] -0.049 | duvelisib 0.052 | gandotinib 0.078 | tozasertib -0.009 | [7] 0.003 | doramapimod 0.007 | ispinesib -0.056
